Publication PMC7819943, “Rice protein-binding microarrays: a tool to detect cis-acting elements near promoter regions in rice”
This is one part of the list.

Amino acid sequences for entries named in this document (tags omitted).
UniProt Q0JBA9, entry or part of it: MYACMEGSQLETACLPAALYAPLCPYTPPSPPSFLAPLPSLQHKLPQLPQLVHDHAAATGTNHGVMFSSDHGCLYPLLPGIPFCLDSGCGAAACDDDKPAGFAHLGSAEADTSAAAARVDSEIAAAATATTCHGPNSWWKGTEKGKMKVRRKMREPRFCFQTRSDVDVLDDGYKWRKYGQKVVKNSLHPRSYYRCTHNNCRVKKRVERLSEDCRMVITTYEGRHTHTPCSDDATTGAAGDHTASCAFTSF

molecular target: OsWRKY34 (Oryza sativa, UniProt Q0JBA9 1-250); test: protein-binding microarray (RPBM); PBS, 2% BSA, 51.3 ng/ul salmon testes DNA, 50 uM zinc acetate, 200 nM TF, 25 C, 1 h; high values mean tight binding; details: protein: recombinant; tags: N-terminal polyhistidine and DsRed monomer fusion (pET32a); label: CyDye5-dUTP incorporated in the synthesized complementary strand; 3' TTTTT single-stranded linker to array surface; dsDNA, one strand shown
Procedure, shortened: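 Binding signal is defined as the fluorescence intensity of each feature in arbitrary units, read on an Axon 4000B scanner. Transcription factors with N-terminal polyhistidine and DsRed fusions came from E. coli BL21-CodonPlus and were purified on Ni–NTA. They were incubated at 200 nM for 1 h at 25 °C on a custom Agilent array that had been made double-stranded with Cy5-dUTP, with 50 µM zinc acetate present, and the array was washed.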

Compared with “CTTCTGGGACTCTCACACGCCCATGGCCTCGCATGAGTCACGGAGTCACCTAGTGCAG”, “TGCTTATTGGTGGGTGTAAATTTGTAGGGTCTGAATTAATCGGAGTCACCTAGTGCAG” is higher in binding signal: 8350 fluorescence intensity (a.u.) for the first, 12000 fluorescence intensity (a.u.) for the second.

Compared with “TTTTATAATCCTTTACTTTACACCTGAATTCATATTAGAACGGAGTCACCTAGTGCAG”, “CCTGATTATCCCGTGTCTTCTCCGCTTCTGGGTTGGTTGCCGGAGTCACCTAGTGCAG” is higher in binding signal: 8540 fluorescence intensity (a.u.) for the first, 12600 fluorescence intensity (a.u.) for the second.

Going from “ACCATTTTAAAAAAGATGTTTCTCTTTTTCGTTTCGACAACGGAGTCACCTAGTGCAG” to “ATTACTCCATCCGTTTCACAATGTAAGTCATTCTAGCATTCGGAGTCACCTAGTGCAG”, the binding signal rises from 8610 fluorescence intensity (a.u.) to 9340 fluorescence intensity (a.u.).

Compared with “GAGGGGCGAAGATTTCTGGTTTTGCGGTTAAGGGAACTTACGGAGTCACCTAGTGCAG”, “CTGCTCTTATTATATTCGTTTCCGTATTTGCTACAATCAACGGAGTCACCTAGTGCAG” is higher in binding signal: 8200 fluorescence intensity (a.u.) for the first, 11100 fluorescence intensity (a.u.) for the second.

First: CGTGTCTTTCCATACCCTGCGCGACGCGACGCGACGCTGTCGGAGTCACCTAGTGCAG
Second: CCACCTATCATGCACGCGGCATCTGTTCGGCCGGCCCAACCGGAGTCACCTAGTGCAG
The binding signal of the first is higher: 11300 fluorescence intensity (a.u.) for the first, 9750 fluorescence intensity (a.u.) for the second.

Compared with “GTCCCGCGTCGCGCTGTCCAGGCTCTCGCTGATCCCTCGCCGGAGTCACCTAGTGCAG”, “CATTATTTTCCAATGCTATTGGGTGGGTTGATTTGATAGACGGAGTCACCTAGTGCAG” is higher in binding signal: 10400 fluorescence intensity (a.u.) for the first, 13200 fluorescence intensity (a.u.) for the second.

First: TCAAGCAGGCTCGAACTCCGTACTGATTTGTTCTTTGATTCGGAGTCACCTAGTGCAG
Second: ATCTCTCCCTTTTCTTTTGAAATTTTGAATATCTATCCCACGGAGTCACCTAGTGCAG
The binding signal of the first is higher: 10900 fluorescence intensity (a.u.) for the first, 8960 fluorescence intensity (a.u.) for the second.

First: CTCCGCCCATTTCTCCTCTCCACCTGCGATCCATCCGCGCCGGAGTCACCTAGTGCAG
Second: CACCGAGCCGCTGACCTTATCTATCCATCCACCCCACACACGGAGTCACCTAGTGCAG
The binding signal of the first is higher: 9270 fluorescence intensity (a.u.) for the first, 8980 fluorescence intensity (a.u.) for the second.

Going from “CCATCGCCCACGCCCTCGCGCGCACCCGGAACGCGTGACCCGGAGTCACCTAGTGCAG” to “AGCTCGGAGGTCGGAGGGGAGGGGTGGTACGACTACAATGCGGAGTCACCTAGTGCAG”, the binding signal rises from 10600 fluorescence intensity (a.u.) to 13900 fluorescence intensity (a.u.).

Going from “AGGTAATCATATTGTTGTTATTCGTGGATGGGGTGGGCTCCGGAGTCACCTAGTGCAG” to “TAGGTCTGCTTCAGAGATGGGGTTAGGGTTAGATTTGTTCCGGAGTCACCTAGTGCAG”, the binding signal falls from 16400 fluorescence intensity (a.u.) to 14000 fluorescence intensity (a.u.).

Going from “TGCTCGATAGCCGCTTCCCCGTCGCGCCCTCCAGGTTTTACGGAGTCACCTAGTGCAG” to “TGAATCCTAGCGAGAGTTTTTGTCCGCTTCCATCTCTCTCCGGAGTCACCTAGTGCAG”, the binding signal falls from 10700 fluorescence intensity (a.u.) to 9000 fluorescence intensity (a.u.).

Going from “AAGCGTGACATCCCTAATCGGCATTTGATCAAGCAACTCACGGAGTCACCTAGTGCAG” to “AATTTTCTTAAAATTTGAGGTTTAGTTTGACTTTCTTTTTCGGAGTCACCTAGTGCAG”, the binding signal rises from 8180 fluorescence intensity (a.u.) to 9400 fluorescence intensity (a.u.).

Going from “GATTGCTGTTTCACTTACAAATGGATCCCATGTGTCTTTTCGGAGTCACCTAGTGCAG” to “CTTGTTCTTTCGTTGATGTGTTCTTGGTTTTGAGTTCTCTCGGAGTCACCTAGTGCAG”, the binding signal rises from 10000 fluorescence intensity (a.u.) to 12500 fluorescence intensity (a.u.).

Going from “ATTCTCCTTCGCCCACGATTTTCTTCGTCTTCTTCGTCTCCGGAGTCACCTAGTGCAG” to “CGTAAAAAGGTTCCTATATAGTACTCTATCAGTTCTTCTTCGGAGTCACCTAGTGCAG”, the binding signal falls from 9760 fluorescence intensity (a.u.) to 8980 fluorescence intensity (a.u.).

First: CCCATTTTACATCCACCACCCTAATCCACATCTCTATTTACGGAGTCACCTAGTGCAG
Second: TCCTGTTTCTTTCTCCCCTTTCTCTGTTTTTTGGCAGTTTCGGAGTCACCTAGTGCAG
The binding signal of the first is lower: 8070 fluorescence intensity (a.u.) for the first, 12700 fluorescence intensity (a.u.) for the second.

Compared with “AAATAACATCACAGTTCGCTATCGTCATCCTATTCCTAGGCGGAGTCACCTAGTGCAG”, “GCTAATTTGACTCGGTTTTCATCTGACGTGGCATTGACGTCGGAGTCACCTAGTGCAG” is higher in binding signal: 8290 fluorescence intensity (a.u.) for the first, 9180 fluorescence intensity (a.u.) for the second.

First: TGGTAGGTATCAAGCATATATATTCTTCTCTTTCCAATTTCGGAGTCACCTAGTGCAG
Second: GACGTGTCCTTTTCTTTTTTTTCTTCTTTTCTTTTTTTTTCGGAGTCACCTAGTGCAG
The binding signal of the first is higher: 9850 fluorescence intensity (a.u.) for the first, 8510 fluorescence intensity (a.u.) for the second.

First: GGTGTTGTCATTGGTCAGGTGAGTTGTAGCTTGAATTGAACGGAGTCACCTAGTGCAG
Second: TCCGTACAACCGCTCATCCTAGCCGAACGTGTATGACCTCCGGAGTCACCTAGTGCAG
The binding signal of the first is lower: 10300 fluorescence intensity (a.u.) for the first, 10600 fluorescence intensity (a.u.) for the second.

Going from “GTTGTTGCGGGAGGGAATTGTGTTGTTCTGTTGTAGTAGTCGGAGTCACCTAGTGCAG” to “ATTCAACTTCCTTAGTTCCTATCTTCTTTATTTTTCAGAACGGAGTCACCTAGTGCAG”, the binding signal falls from 15500 fluorescence intensity (a.u.) to 8730 fluorescence intensity (a.u.).

Going from “CCATGCCATCCGTTTTAGGATAACTGTACACGATACATCACGGAGTCACCTAGTGCAG” to “TTGTTGGGTGGGGACGTGGGGTGGGGTTCATGGAGTGGTTCGGAGTCACCTAGTGCAG”, the binding signal rises from 8960 fluorescence intensity (a.u.) to 24800 fluorescence intensity (a.u.).

Going from “GCGGCCGGCGGCGAGGTCGCGGACGGGGAGGTGGGGCGCGCGGAGTCACCTAGTGCAG” to “ACGCGGCCGCCGAGCTGGACTCCTCATCCCCAGCTTCGCTCGGAGTCACCTAGTGCAG”, the binding signal falls from 10000 fluorescence intensity (a.u.) to 8600 fluorescence intensity (a.u.).
